# Source: PubChem BioAssay (Tox21)
# Amino acid sequences for entries named in this document (tags omitted). A change or cut given only in a name is not applied to a line headed by its entry.
# UniProt P28223, whole entry, looked up: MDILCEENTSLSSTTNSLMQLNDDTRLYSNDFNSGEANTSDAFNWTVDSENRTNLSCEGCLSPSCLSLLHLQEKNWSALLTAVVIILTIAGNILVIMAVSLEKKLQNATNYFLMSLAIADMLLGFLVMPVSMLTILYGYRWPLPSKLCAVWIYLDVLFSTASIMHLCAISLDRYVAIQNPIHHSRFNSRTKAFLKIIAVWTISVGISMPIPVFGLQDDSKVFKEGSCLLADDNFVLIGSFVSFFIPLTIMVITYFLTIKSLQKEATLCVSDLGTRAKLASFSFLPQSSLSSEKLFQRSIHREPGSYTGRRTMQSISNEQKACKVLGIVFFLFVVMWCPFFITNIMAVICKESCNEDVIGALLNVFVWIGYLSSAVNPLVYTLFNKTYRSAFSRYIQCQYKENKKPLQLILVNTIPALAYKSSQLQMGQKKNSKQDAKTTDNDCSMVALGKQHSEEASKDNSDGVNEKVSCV
# UniProt P14416, whole entry, looked up: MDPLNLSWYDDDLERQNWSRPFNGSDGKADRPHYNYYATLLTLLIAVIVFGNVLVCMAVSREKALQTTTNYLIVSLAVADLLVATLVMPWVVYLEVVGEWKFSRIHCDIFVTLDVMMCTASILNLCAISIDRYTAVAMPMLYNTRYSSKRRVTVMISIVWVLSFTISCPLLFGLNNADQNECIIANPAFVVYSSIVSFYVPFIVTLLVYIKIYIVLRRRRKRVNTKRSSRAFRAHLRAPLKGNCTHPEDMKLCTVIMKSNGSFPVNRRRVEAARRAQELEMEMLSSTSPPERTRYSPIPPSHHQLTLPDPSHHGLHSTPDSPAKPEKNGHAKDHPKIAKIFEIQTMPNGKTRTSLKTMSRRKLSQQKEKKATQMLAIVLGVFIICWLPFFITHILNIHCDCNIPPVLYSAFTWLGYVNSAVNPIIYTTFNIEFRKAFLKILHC
# UniProt P11229: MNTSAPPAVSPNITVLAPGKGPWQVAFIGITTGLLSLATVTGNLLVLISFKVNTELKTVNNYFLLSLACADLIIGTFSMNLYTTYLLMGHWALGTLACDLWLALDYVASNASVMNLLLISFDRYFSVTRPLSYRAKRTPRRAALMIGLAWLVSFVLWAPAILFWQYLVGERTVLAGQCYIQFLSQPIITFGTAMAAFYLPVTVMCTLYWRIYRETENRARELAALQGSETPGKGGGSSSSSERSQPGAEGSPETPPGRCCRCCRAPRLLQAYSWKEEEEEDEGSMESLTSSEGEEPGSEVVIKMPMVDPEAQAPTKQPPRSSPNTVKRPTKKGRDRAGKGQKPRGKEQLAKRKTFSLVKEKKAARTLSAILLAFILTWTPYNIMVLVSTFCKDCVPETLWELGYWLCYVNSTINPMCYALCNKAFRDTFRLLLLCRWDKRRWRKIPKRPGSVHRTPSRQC
# Where “and” joins values, the source holds several entries; their conditions need not be identical. Identical values can stand only once. Inconclusive means that the source gave no clear call. Such entries were picked first, then a sample of the others. For some of these results: Where the call is inconclusive, the potency comes from a doubtful curve fit. Calls of active or inactive are those of the source. Unless noted, calls come from the whole dose curve.
# Tests used:
# [1] = Nuclear factor erythroid 2-related factor 2/antioxidant responsive element (Nrf2/ARE) small molecule agonists: luciferase reporter gene qHTS assay in human keratinocytes (AID 1919969); details: KeratinoSens HaCaT ARE-luciferase, luminescence, 24 h; activity, positive = activation: at 92.4 µM (top of the series); note: potency is the fitted concentration of half-maximal effect; nearly all actives have a fitted effect of over 35% in size
# [2] = p53 small molecule agonists, cell-based qHTS assay with human liver microsomes (AID 1963577); details: HCT-116 p53RE-bla with human liver microsomes, ratio, 16 h; activation: at 66 µM (top of the series) unless noted; note: potency is the fitted concentration of half-maximal effect; for activation: % is set by controls: 0 for no effect and ±100 for the full control effect
# How it was run: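 p53RE-bla cells, 4,000/well, compound added after 5 h, with human liver microsomes 0.5 mg/mL and NADPH 0.5 mg/mL final; 16 h at 37 C, then LiveBLAzer 2 h RT, fluorescence.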
# [3] = p53 small molecule agonists, cell-based qHTS assay with rat liver microsomes (AID 1963578); details: HCT-116 p53RE-bla, beta-lactamase ratio, 16 h; activation: at 66 µM (top of the series) unless noted; note: potency is the fitted concentration of half-maximal effect; for activation: % is set by controls: 0 for no effect and ±100 for the full control effect
# How it was run: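 p53RE-bla cells, 4,000/well, pre-incubated 5 h, then given compounds plus rat liver microsomes (0.5 mg/mL final) and NADPH (0.5 mg/mL final). Incubation 16 h at 37 C; beta-lactamase reporter read by LiveBLAzer fluorescence after 2 h at room temperature.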
# [4] = p53 small molecule agonists, cell-based qHTS assay (AID 1963582; active = well fitted activation curve with a large enough effect in the signal ratio in the repeat runs, not every such curve was filed as active; inconclusive = weak or mixed curves; the % refers to the signal ratio; note: potency is the fitted concentration of half-maximal effect); details: HCT-116 p53RE-bla reporter, beta-lactamase FRET ratio, 16 h; activation: at 66 µM (top of the series) unless noted
# How it was run: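 Compounds are pin-transferred in DMSO onto p53RE-bla cells and incubated 16 h at 37 C. The B/G FRET beta-lactamase substrate is then applied for 2 h at RT and fluorescence recorded.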
# [5] = target: 5-hydroxytryptamine receptor 2A (Homo sapiens) (UniProt P28223); test: 5-hydroxytryptamine receptor 2A (HTR2A) small molecule agonists, cell-based qHTS assay (AID 1963587); note: potency is the fitted concentration of half-maximal effect; nearly all actives have a fitted effect of over 30% in size
# How it was run: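 Kinetic calcium-flux fluorescence (2 min, 1 sec intervals) after compound addition in agonist mode. HTR2A-CHO cells were cultured 18 h, then dye-loaded 1 h at 37 C.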
# [6] = cAMP Responsive Elements (CRE) small molecule agonists, cell-based qHTS assay (AID 1963590); details: CRE-bla HEK293T, beta-lactamase FRET ratio, 3 h; activation: at 92.4 µM (top of the series) unless noted; note: potency is the fitted concentration of half-maximal effect
# How it was run: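 Cell line: CRE-bla HEK 293T; medium DMEM/10% dialyzed FBS/0.1 mM NEAA/1 mM pyruvate/25 mM HEPES; 3 h compound exposure; beta-lactamase FRET readout after 2 h substrate loading at RT.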
# [7] = cAMP Responsive Elements (CRE) small molecule antagonists, cell-based qHTS assay (AID 1963591; active = well fitted inhibition curve with a large enough effect in the signal ratio in the repeat runs, not every such curve was filed as active; inconclusive = weak or mixed curves, or effect the other way; the % refers to the signal ratio; note: potency is the fitted concentration of half-maximal effect); details: CRE-bla HEK293T, beta-lactamase FRET ratio; activity change, negative = inhibition: at 92.4 µM (top of the series) unless noted
# How it was run: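 Inhibition of NKH477-driven (0.25 uM final) CRE-beta-lactamase signal in HEK293T cells, 3 h compound exposure at 37 °C, detected by FRET substrate fluorescence.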
# [8] = target: Beta-2 adrenergic receptor (Homo sapiens) (UniProt P07550); test: Adrenergic beta2 receptor (ADRB2) small molecule antagonists, cell-based qHTS assay (AID 1963592); details: CHO-ADRB2 cells, isoproterenol-stimulated cAMP HTRF ratio, 0.5 h; activity change, negative = inhibition: at 92.4 µM (top of the series) unless noted; note: nearly all actives have a fitted effect of over 50% in size; note: potency is the fitted concentration of half-maximal effect; for activity change, negative = inhibition: % is set by controls: 0 for no effect and ±100 for the full control effect
# How it was run: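 Cells (CHO, stable ADRB2 overexpression) incubated 18-20hr at 37C; compounds added from DMSO; agonist mix (1nM isoproterenol, 100uM IBMX, 25uM Ro-20-1724) added; 0.5hr RT; d2-cAMP and anti-cAMP-cryptate added; 1hr RT; 665/615 nm read.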
# [9] = target: Beta-2 adrenergic receptor (Homo sapiens) (UniProt P07550); test: Adrenergic beta2 receptor (ADRB2) small molecule agonists, cell-based qHTS assay (AID 1963593); details: CHO-ADRB2 cells, cAMP HTRF, 30 min; activation: at 92.4 µM (top of the series) unless noted; note: potency is the fitted concentration of half-maximal effect
# How it was run: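 CHO cells stably over-expressing ADRB2 were plated overnight at 37C, then dosed with compounds plus a stimulation mix containing 100uM IBMX and 25uM Ro-20-1724 for 0.5hr at room temperature. cAMP was measured by HTRF competition, 1hr.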
# [10] = target: D(2) dopamine receptor (Homo sapiens) (UniProt P14416); test: Dopamine D2 receptor (DRD2) small molecule antagonists, cell-based qHTS assay (AID 1963595; active = well fitted inhibition curve with a large enough effect in the signal ratio in the repeat runs, with a control signal flat; inconclusive = weak or mixed curves, or effect the other way; the % refers to the signal ratio; note: % is set by controls: 0 for no effect and ±100 for the full control effect); details: HEK293-DRD2 cAMP HTRF antagonist mode; activity change, negative = inhibition: at 92.4 µM (top of the series) unless noted
# How it was run: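 Antagonist mode in DRD2-HEK293 cells: after compound addition with 0.1 mM Ro20-1724, cells received quinpirole (12 nM) and NKH477 (200 nM) for 30 min at room temperature; HTRF cAMP read after 1 h detection.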
# [11] = p53 small molecule agonists, cell-based qHTS assay: qHTS cell viability counter screen (AID 1963581); note: potency is the fitted concentration of half-maximal effect; nearly all actives have a fitted effect of over 45% in size
# How it was run: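 In the same plates used for the p53 bla reporter, HCT-116 cells given compounds for 16 h at 37 C received CellTiter-Glo; luminescence was recorded 30 min later at room temperature.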
# [12] = target: Muscarinic acetylcholine receptor M1 (Homo sapiens) (UniProt P11229); test: Cholinergic receptor muscarinic 1 (CHRM1) small molecule antagonists, cell-based qHTS assay (AID 1963588); note: nearly all actives have a fitted effect of over 40% in size; note: potency is the fitted concentration of half-maximal effect
# How it was run: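 CHRM1-CHO calcium-flux assay, antagonist mode. Cells were seeded 18 h, dye-loaded 1 h at 37 C and given compound for 5 min at RT, then acetylcholine was added at 50nM. FDSS fluorescence was read 3 min; 15 concentrations, three runs.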
# [13] = target: Muscarinic acetylcholine receptor M1 (Homo sapiens) (UniProt P11229); test: Cholinergic receptor muscarinic 1 (CHRM1) small molecule agonists, cell-based qHTS assay (AID 1963589); note: potency is the fitted concentration of half-maximal effect; nearly all actives have a fitted effect of over 35% in size
# How it was run: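 Each compound was tested at 15 concentrations across three independent runs on dye-loaded CHO cells stably expressing human CHRM1, reading intracellular calcium fluorescence kinetically at 1 sec intervals.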
# [14] = target: 5-hydroxytryptamine receptor 2A (Homo sapiens) (UniProt P28223); test: 5-hydroxytryptamine receptor 2A (HTR2A) small molecule antagonists, cell-based qHTS assay (AID 1963586); note: potency is the fitted concentration of half-maximal effect; nearly all actives have a fitted effect of over 45% in size
# How it was run: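 Antagonist-mode intracellular calcium assay: DOI (4 nM) added after 5 min compound pre-incubation at room temperature to dye-loaded HTR2A-CHO cells. Fluorescence followed for 3 min, sampled every second.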
# [15] = target: D(2) dopamine receptor (Homo sapiens) (UniProt P14416); test: Dopamine D2 receptor (DRD2) small molecule agonists, cell-based qHTS assay (AID 1963594); details: HEK293-DRD2 cAMP HTRF, agonist mode, 30 min; activation: at 92.4 µM (top of the series) unless noted; note: potency is the fitted concentration of half-maximal effect; nearly all actives have a fitted effect of over 35% in size
# How it was run: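 cAMP accumulation in DRD2-HEK293 cells measured by HTRF after 1 h detection; compounds added 10 min before NKH477 (200nM […]) forskolin-analogue stimulation, 30 min at room temperature, with Ro20-1724 present at 0.1 mM final.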
structure (smiles),measurement,setting,value
CN(C)c1ccc(N=NS(=O)(=O)O)cc1,Potency,[1],active: 25.6 µM
same,activation,[2],inconclusive: 15.7%
same,Potency,[3],inactive
same,Potency,[4],inconclusive: 7.43 µM
same,Potency,[5],"inconclusive: 51.6 µM [activator, partial curve, poor fit]"
same,Potency,[6],"inconclusive: 20.4 µM [rising, full curve, poor fit]"
same,Potency,[7],inconclusive: 32.3 µM [activator]
same,Potency,[8],"inconclusive: 43.3 µM [falling, partial curve]"
same,Potency,[9],inconclusive: 61.1 µM [cytotoxic]
same,"activity change, negative = inhibition",[10],inconclusive: -4.35%
O=C(O)c1c2ccccc2cc2ccccc12,Potency,[1],active: 48.4 µM
same,Potency,[2],inconclusive: 40.7 µM [fluorescent]
same,Potency,[11],"inconclusive: 20.4 µM [rising, full curve]"
same,Potency,[6],"inconclusive: 24.3 µM [rising, full curve]"
NC[C@H]1O[C@H](O[C@H]2[C@H](O)[C@@H](O[C@H]3O[C@H](CO)[C@@H](O)[C@H](N)[C@H]3O)[C@H](N)C[C@@H]2N)[C@H](O)[C@@H](O)[C@@H]1O,Potency,[1],"inconclusive: 3.36 µM [activator, single point]"
same,activation,[2],inconclusive: 30.5% [at 5.99 µM]
same,Potency,[4],"inconclusive: 1.78 µM [activator, partial curve, poor fit]"
same,Potency,[6],"inconclusive: 2.38 µM [rising, partial curve, poor fit]"
same,Potency,[9],"inconclusive: 3.77 µM [inhibitor, single point]"
CC1(C)C(C=C(Cl)Cl)C1C(=O)OCc1cccc(Oc2ccccc2)c1 (stereo not drawn),Potency,[1],"inconclusive: 6.07 µM [activator, single point]"
same,Potency,[2],inconclusive: 51 µM [fluorescent]
same,Potency,[4],"inconclusive: 18.1 µM [rising, partial curve]"
same,Potency,[12],"inconclusive: 13.2 nM [inhibitor, full curve, poor fit]"
same,Potency,[13],"inconclusive: 54.6 µM [rising, single point]"
same,Potency,[9],"inconclusive: 215 nM [inhibitor, partial curve, poor fit] and inconclusive: 306 nM [inhibitor, partial curve, poor fit]"
COC(=O)c1c(Cl)c(Cl)c(C(=O)OC)c(Cl)c1Cl,Potency,[1],"inconclusive: 68.6 µM [activator, single point]"
same,Potency,[2],"inconclusive: 20.4 µM [fluorescent, full curve]"
same,Potency,[3],"inconclusive: 18.2 µM [fluorescent, single point]"
same,Potency,[14],"inconclusive: 3.34 µM [inhibitor, partial curve, poor fit]"
same,Potency,[5],"inconclusive: 61.6 µM [activator, partial curve, poor fit]"
same,Potency,[6],"inconclusive: 77 µM [fluorescent, single point]"
same,"activity change, negative = inhibition",[8],inconclusive: -7.94%
same,Potency,[9],inconclusive: 68.6 µM
same,activation,[9],inconclusive: -4.55%
Cc1cccc(N(C)C(=S)Oc2ccc3c(c2)C2CCC3C2)c1 (stereo not drawn),Potency,[1],"inconclusive: 23.7 µM [activator, partial curve]"
same,Potency,[2],"inconclusive: 9.98 µM [fluorescent, full curve]"
same,activation,[3],inconclusive: 5.16% [at 30.3 µM]
same,Potency,[14],active: 1.63 µM
same,Potency,[6],inconclusive: 29.8 µM
O=C(O)Cc1cc(I)c(Oc2cc(I)c(O)c(I)c2)c(I)c1,Potency,[1],active: 30 µM
same,Potency,[3],"inconclusive: 4.48 µM [rising, partial curve, poor fit]"
same,Potency,[11],active: 22.5 µM
same,Potency,[4],"inconclusive: 6.33 µM [rising, partial curve]"
same,Potency,[14],"inconclusive: 13 µM [inhibitor, partial curve]"
same,Potency,[5],"inconclusive: 38.1 µM [activator, single point]"
same,Potency,[6],"inconclusive: 47.6 µM [rising, single point]"
same,Potency,[7],"inconclusive: 39.5 µM [fluorescent, partial curve]"
same,activation,[9],inconclusive: -21.9% [at 42.5 µM]
Cc1ccc(Cl)cc1N,Potency,[1],"inconclusive: 1.24 µM [activator, single point]"
same,Potency,[3],inconclusive: 18.6 µM [activator]
same,Potency,[4],inactive
same,Potency,[12],inactive
same,Potency,[9],"inconclusive: 1.39 µM [inhibitor, single point]"
CC(C)COC(=O)c1ccc(O)cc1,Potency,[1],inconclusive: 34.3 µM [activator]
same,Potency,[2],inactive
same,Potency,[6],"inconclusive: 68.5 µM [rising, partial curve, poor fit]"
same,Potency,[9],"inconclusive: 76.9 µM [inhibitor, partial curve, poor fit]"
same,Potency,[15],"inconclusive: 25.4 µM [falling, partial curve, poor fit]"
